Assay results

From PubChem BioAssay record AID1159506 (NCATS, 2015).

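Luminescence from an EWS-FLI1 target-promoter (NR0B1) reporter, set against a CMV-promoter reporter, two days after silencing single genes in TC32 Ewing sarcoma cells.
Each siRNA was applied at 20 nM.
A z-score of the log NR0B1-over-CMV signal, less the median of siRNAs with the same seed; more negative means a stronger specific loss of the NR0B1 reporter.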

This is part of the screen; most of the strongest results are not listed here.
Sequences are the guide (antisense) strand, without overhang.

strand	gene	seed-corrected z-score
AGUCGUACCAGCUCUGCCU	B3GAT3	-0.065
UUCCGUCACACCAAUCAUC	AGPAT4	0.5758
UUACCGAGAAAGUUCUUCC	TIMP2	-0.3925
UGCUCUCUUCGUUAAACCC	OR8A1	-0.1464
UGCAUCAUAAACCUCAUAC	LEPR	0.2887
UCUGUGCUCUGUGACCACA	LRRC56	0.0515
UGUGGUAUGAGCAAAGUCA	IP6K3	-0.9373
UACCGGUUGAUACCAAUGU	FAM20C	-0.7028
UGAAUUUCCGUUGAACACG	LOC100507431	-1.069
AACCUAAGGAACAGAAUCC	BSG	-0.8244
AAUGCAUUUGAACCUCUCC	RAB34	0.1627
UUGUUGUAGUGCUAAAAUC	ZNF664	0.5485
UUACCACCAAUGAUAACUG	PYGL	-0.2625
UUCUUUAUAAUCACCUUCC	TTC7B	-0.7285
UCUUUUACAAUGACUAGUU	RERGL	-0.01523
UAUCCGCAAAGAUUGAUAC	KL	-0.7044
UGCUCGUUAACCCACAUUC	NLRP4	0.1533
AGAUCCAUCUCUUUGAUUC	BORCS5	0.9892
UAUGGUCUUCAACUUGUCG	CRMP1	-1.301
AUCUAUGUCAUUAUAUGUC	TRAK1	-0.2492
UUGAUUUGAAUUUGGGUGC	ANKRD34C-AS1	-0.3896
UUUCGGUGGAAGACAAUGG	RAN	-1.42
UGUCCUUGUUUGGAAAUGG	NREP	-0.3726
UCCCUUGUCAGGAUAAUUC	NT5C	0.6841
UGGGAUCCAAGAGAGUACC	RAP1GDS1	0.005358
UUGUUGGUAUAGUUCAUUC	TNFSF15	-0.729
UUUGUCUCGGAGAACAGCC	SNED1	0.1433
UGUCUUUACAUCUAAAGGC	WFDC11	0.7108
UUUGCAUUUAGUCUCUUAG	SUCLG2P2	0.3144
AUUCGAGAUUCCAUGAUCC	TCP11L1	0.2151
UGCUGUAUUACAUUAAGGC	NANOG	-0.08732
AGACUAACCAGAUCUUGAG	DDR1	0.1997
UACGAUUGCAGAACUCUUC	CD55	0.1313
UUUGUAGGGACGAAUGCCU	OVOL2	0.458
UUUACUAAUGUGAUCUUCC	GKAP1	0.2225
AGAGGAAGUAGACUAGGCC	MFSD10	0.3585
UCAGGUAGGAAUCAAGCAG	CNTD2	0.02439
UCCUUCUCAACAUCUUUGC	ZNF549	0.5407
UACGCUGAUGAAGUAGACC	CFAP43	0.8895
AUUCGGGUUAGGAUGAGGU	ZNF418	0.2232
AACCAUACAAUACAGACUG	KCNA4	0.6308
UAUGAUGAAACGAAAGUGC	TAF6L	-0.4581
AAAGUUCCAAGAAGUUCCC	KLK12	0.2327
UCAUUGAUGAUGACCCGGG	ENC1	-0.3697
UUAUAGACCUCGAUCGUCU	THOC6	-0.3032
AUGAUAUUCAUACUGCUCG	CDC45	0.2532
UGUGGAUUAAAAGGACUUG	RUNX2	0.2942
UUGCGUUCUAGCACGAGGU	GAS8	-0.06759
UACGAUAUGACUAACACUG	DHX36	0.005867
UAAUGUUGCAGGAGCAUGG	AHSA1	0.1892
UUCAAUUGUAGAAGUUAUC	ACSS3	0.7572
AGAUUUGCAAAAGAUGAUC	BRWD1	0.02613
UAUGAGAAUUGGUAGAAAG	ZNF493	0.005039
UCUGCUACCACUUCAAUCA	RGP1	0.3576
UUUAGAACUUGGAACACUG	NAPEPLD	-0.1525
UGAACUCUCAACAAAAGCU	YY1	-0.7305
AAAUAGAGAAACUACAGUG	SLC2A3	-0.895
AUCCAUAUAAACGCAGCGG	ZZEF1	0.5309
ACAGGGAUAAGGGUACACC	TOMM5	-1.136
UCUGGGUCUAGGGUUUCCU	DHODH	0.1765
AACUGGAGAAUUAAGUCCC	BRINP2	-0.1778
UCUUUUAGGAGUUGUGAUU	POLR2J3	-0.5812